LdMetRS: 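Primary screen of methionyl-tRNA synthetase; the read-out is not stated. Target: Methionyl-tRNA synthetase (putative), Leishmania donovani (UniProt E9BF75). The test concentration is not given. Values are per cent inhibition. About 68,000 compounds were tested under these conditions; 0.035% (about 24) showed 50% or more at least once.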
Mtb heat-shock: 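Assay on Mycobacterium tuberculosis, filed only as a heat shock assay from Cornell; the read-out is not stated. The concentration is filed as 10 mM, unlikely as a test dose, so the dose is not known. Direction is inferred from retests: higher values go with stronger inhibition. About 69,000 compounds were tested under these conditions; 1.4% (about 930) showed 50% or more at least once.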

Amino acid sequences for entries named in this document (tags omitted).
UniProt E9BF75, entry or part of it: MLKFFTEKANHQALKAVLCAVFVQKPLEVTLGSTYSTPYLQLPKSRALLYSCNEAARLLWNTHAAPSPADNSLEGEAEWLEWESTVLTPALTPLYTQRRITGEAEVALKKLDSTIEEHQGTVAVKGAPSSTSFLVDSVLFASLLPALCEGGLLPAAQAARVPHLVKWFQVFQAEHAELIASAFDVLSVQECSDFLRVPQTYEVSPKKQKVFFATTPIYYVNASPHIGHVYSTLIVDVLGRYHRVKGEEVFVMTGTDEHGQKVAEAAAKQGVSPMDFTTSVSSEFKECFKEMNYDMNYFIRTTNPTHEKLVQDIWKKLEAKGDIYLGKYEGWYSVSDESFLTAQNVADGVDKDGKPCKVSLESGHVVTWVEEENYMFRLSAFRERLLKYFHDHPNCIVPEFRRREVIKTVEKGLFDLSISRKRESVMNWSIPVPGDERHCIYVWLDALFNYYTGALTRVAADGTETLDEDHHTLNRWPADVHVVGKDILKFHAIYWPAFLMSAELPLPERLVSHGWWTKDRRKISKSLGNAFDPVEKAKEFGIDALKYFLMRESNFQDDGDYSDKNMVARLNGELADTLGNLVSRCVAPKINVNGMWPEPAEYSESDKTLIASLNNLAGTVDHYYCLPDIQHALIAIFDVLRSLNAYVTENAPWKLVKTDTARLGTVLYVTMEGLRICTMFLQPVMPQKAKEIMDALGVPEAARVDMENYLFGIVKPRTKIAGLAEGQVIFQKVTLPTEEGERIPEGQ

All values are in %.
How 0% and 100% were set is not recorded. Most values in the screen are low, and negative values occur.
Compounds were drawn at random from those tested, without regard to their results.
A dash means the value is not listed here; it may have been measured.

| compound | LdMetRS | Mtb heat-shock |
|---|---|---|
| `O=C(c1cnn2c1OCCC2)N1CCN(C/C=C/c2ccccc2)CC1` | 21.57 | 11.57 |
| `CCn1ccnc1CN1CCCC(CO)(CCCc2ccccc2)C1` (stereo not drawn) | 4.982 | -9.138 |
| `O=C(C1CC1)N1C[C@H]2CCCN(S(=O)(=O)c3cccc(F)c3)[C@H]2C1` | 6.231 | - |
| `O=C(O)[C@@H]1CN(C(=O)CC2CCCC2)C[C@H]1c1ccc(F)cc1` | 6.859 | -1.082 |
| `Cc1ccc(S(=O)(=O)NC2CNC(=O)C2)cc1C` (stereo not drawn) | 13.3 | -1.559 |
| `[H][C@@]12CS(=O)(=O)C[C@]1([H])N(S(=O)(=O)N1CCCC1)CCN2CC` | - | 20.18 |
| `CCCS(=O)(=O)N1C[C@@H]2CN(Cc3cccs3)CCO[C@@H]2C1` | 7.246 | - |
| `O=C(O)C(F)(F)F.O=C(c1ccco1)N1CCCC2(CN(Cc3ccc(F)cc3)CCO2)C1` (stereo not drawn) | - | -41.8 |
| `CCOCCCn1c(NC(=O)c2cnn(C)c2)nc2ccccc21` | 13.36 | 44.67 |
| `Cc1cc(NC(=O)NCC(C(C)C)N2CCOCC2)n(C)n1` (stereo not drawn) | 18.89 | -4.553 |
| `CC(C)(C)n1ccc(C(=O)N2CCCC(c3ncc[nH]3)C2)c1` (stereo not drawn) | 17.71 | 2.807 |
| `COc1ccc(C(=O)NS(=O)(=O)c2cncc(Br)c2)cc1OC` | 9.783 | -4.015 |
| `CNC(=O)CNCc1c[nH]nc1-c1cc2ccccc2o1` | 13.58 | - |
| `CC(=O)c1cccc(-c2nc3c([nH]2)CCNC3)c1F` | 9.582 | -50.72 |
| `COC(=O)C(c1cc(F)ccc1F)N(C)C(=O)c1cccnc1O` (stereo not drawn) | 20.14 | 8.303 |
| `O=C1CC2(CCNCC2)C(=O)N1Cc1ccc(F)cc1` | 2.801 | - |
| `COC1CCN(CCNC(=O)NC(C)c2cccc(Cl)c2)CC1` (stereo not drawn) | 8.437 | 12.4 |
| `CCOCC1CN(CC2CC2)Cc2nn(C)cc21` (stereo not drawn) | 6 | - |
| `CN(C)CCC1CCCCN1Cc1cnn(C)c1C1CC1` (stereo not drawn) | 10.43 | -8.037 |
| `CC(C)CNC(=O)c1cc(Br)c2c(c1)OCCO2` | 18.18 | -8.852 |
| `CSc1ccc(NC(=O)Cn2cc(N)cn2)cc1` | 8.123 | -0.1037 |
| `Fc1cccnc1N1CCOCC2(CCCN(c3nncs3)C2)C1.O=C(O)C(F)(F)F` (stereo not drawn) | - | -31.45 |
| `CC1COc2ccccc2N1C(=O)c1ccc(=O)n(C)c1` (stereo not drawn) | 16.55 | -11.16 |
| `CCS(=O)(=O)N1CCc2cc(C(=O)N(C)C)c(NCC3CC3)nc2CC1` | 10.15 | -35.72 |
| `COc1ccc(CN[C@@H]2CO[C@H](CNC(=O)N3CCOCC3)[C@H]2O)cc1` | -1.017 | -20.12 |
| `[H][C@]12CCNC[C@@]1([H])OCCN(C(=O)c1ccco1)C2` | - | -13.91 |
| `CS(=O)(=O)N1CCC[C@]2(C[C@@H](Oc3ncccc3F)CO2)C1` | 12.45 | - |
| `O=C(NCCCNc1ccc(C(F)(F)F)cn1)c1ccc2c(c1)OCO2` | 16.32 | 6.313 |
| `CCn1cnnc1C1CCN(C(=O)COc2ccccc2OC)CC1` | 3.655 | 7.459 |
| `Cc1ncsc1CCCNC(=O)C1CC2(CCNCC2)CN1C` (stereo not drawn) | -3.093 | -17.38 |
| `Cc1ccc(C(=O)N(C)Cc2ccc3c(c2)OCO3)c(=O)[nH]1` | 15.85 | -29.44 |
| `CN1CCC2(COCc3cnc(N4CCOCC4)nc32)C1.O=C(O)C(F)(F)F` (stereo not drawn) | - | -8.776 |
| `CS(=O)(=O)NCCNC(=O)NC1(c2ccc(Cl)cc2)CCC1` | 8.362 | 11.61 |
| `COC(=O)c1ccc(NC(=O)CCc2ccncc2)c(C)c1` | 13.19 | -7.918 |
| `COCC(=O)N1CCN(Cc2cccnc2)c2ncccc2C1.O=C(O)C(F)(F)F.O=C(O)C(F)(F)F` | - | -17.68 |
| `CC(C)(C)NS(=O)(=O)c1ccccc1CNCc1ccccc1` | 18.09 | 15.51 |
| `Cc1cc(S(=O)(=O)N2CCCc3cc(F)cc(F)c32)sc1C(=O)O` | 0 | 3.782 |
| `Cc1ccc(N2CCN(C(=O)CN3C[C@@H]4CC[C@H]3C4)CC2=O)cc1` | 3.394 | - |
| `O=C1CCC2(CCCN(c3ncc(F)cn3)CC2)N1Cc1ccccc1` (stereo not drawn) | 15.6 | -2.973 |
| `Cc1cccnc1NC(=O)NC(CCO)C(C)(C)C` (stereo not drawn) | 8.122 | -22.65 |
| `N#Cc1ccccc1OCCN1CCCCC1Cn1cncn1` (stereo not drawn) | 18.95 | 13.34 |
| `Fc1ccc(C(NCc2nnc(-c3ccco3)o2)C2CCC2)cc1` (stereo not drawn) | 11.82 | 30.51 |
| `COCCCN1CCc2cncnc2C1` | 4.225 | 6.825 |
| `CC(C)n1ccnc1C1CCN(C(=O)c2ccccn2)CC1` | 12.71 | 14.42 |
| `CCc1ncc(C(=O)N2CCCC2Cn2cccn2)s1` (stereo not drawn) | 9.117 | -9.738 |
| `CCn1cc(CCC(=O)NCc2csc(C3CC3)n2)c(C)n1` | -8.467 | 16.03 |
| `O=c1[nH]c(CN2CCOC(Cn3cccn3)C2)nc2ccccc12` (stereo not drawn) | 22.79 | -17.14 |
| `CC(C)OCCOCc1cccc(NC(=O)NCC(=O)N(C)C)c1` | 12.42 | -9.846 |
| `Cc1cc(=O)[nH]c(=O)n1Cc1ncc(-c2ccccc2C(=O)O)s1` | 4.787 | 12.08 |
| `CC(=O)N1CCN(C(=O)C2CCN(c3cccnn3)C2)CC1` (stereo not drawn) | 3.859 | -0.95 |
| `CC(=O)N1CCCC1c1cc(N2CCN(CC(C)(C)C)CC2)cc(C)n1` (stereo not drawn) | 5.412 | -4.967 |
| `CC(=O)Nc1nc(C(=O)NCCOc2ccc(C)cc2)cs1` | 7.023 | -7.176 |
| `COCc1cc(CNc2cnn(CC(F)F)c2)ccc1OC` | -1.351 | -10.69 |

Once more, the final 5:

compound,LdMetRS,Mtb heat-shock
Cc1cc(=O)[nH]c(=O)n1Cc1ncc(-c2ccccc2C(=O)O)s1,4.787,12.08
CC(=O)N1CCN(C(=O)C2CCN(c3cccnn3)C2)CC1 (stereo not drawn),3.859,-0.95
CC(=O)N1CCCC1c1cc(N2CCN(CC(C)(C)C)CC2)cc(C)n1 (stereo not drawn),5.412,-4.967
CC(=O)Nc1nc(C(=O)NCCOc2ccc(C)cc2)cs1,7.023,-7.176
COCc1cc(CNc2cnn(CC(F)F)c2)ccc1OC,-1.351,-10.69

Measurements from “University of Dundee, Small-Polar-MMV Screening Library” (2021), ChEMBL document CHEMBL3988442.